# This is one part of the list.
# Protein sequences, listed by entry. Tags and fused reporters are not part of them. Lines headed by an entry give the natural chain unless they say otherwise; changes in a name come on top.
# UniProt Q96IV0: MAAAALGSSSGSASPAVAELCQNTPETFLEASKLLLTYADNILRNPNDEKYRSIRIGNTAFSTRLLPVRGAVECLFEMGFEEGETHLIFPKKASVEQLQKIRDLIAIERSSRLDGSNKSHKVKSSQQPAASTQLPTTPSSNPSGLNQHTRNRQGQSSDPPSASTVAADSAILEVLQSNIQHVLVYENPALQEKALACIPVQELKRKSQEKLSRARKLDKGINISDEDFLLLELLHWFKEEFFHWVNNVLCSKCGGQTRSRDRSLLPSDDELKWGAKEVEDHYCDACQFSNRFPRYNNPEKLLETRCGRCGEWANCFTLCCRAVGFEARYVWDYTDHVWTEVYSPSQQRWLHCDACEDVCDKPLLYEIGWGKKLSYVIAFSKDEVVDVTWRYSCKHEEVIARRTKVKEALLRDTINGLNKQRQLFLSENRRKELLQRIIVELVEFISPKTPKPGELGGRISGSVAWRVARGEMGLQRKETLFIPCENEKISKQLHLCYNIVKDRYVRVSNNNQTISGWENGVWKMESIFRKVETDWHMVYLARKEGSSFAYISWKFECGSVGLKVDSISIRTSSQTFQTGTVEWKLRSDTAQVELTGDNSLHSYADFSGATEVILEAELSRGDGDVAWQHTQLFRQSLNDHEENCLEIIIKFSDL
# UniProt Q9Y618, whole entry, looked up: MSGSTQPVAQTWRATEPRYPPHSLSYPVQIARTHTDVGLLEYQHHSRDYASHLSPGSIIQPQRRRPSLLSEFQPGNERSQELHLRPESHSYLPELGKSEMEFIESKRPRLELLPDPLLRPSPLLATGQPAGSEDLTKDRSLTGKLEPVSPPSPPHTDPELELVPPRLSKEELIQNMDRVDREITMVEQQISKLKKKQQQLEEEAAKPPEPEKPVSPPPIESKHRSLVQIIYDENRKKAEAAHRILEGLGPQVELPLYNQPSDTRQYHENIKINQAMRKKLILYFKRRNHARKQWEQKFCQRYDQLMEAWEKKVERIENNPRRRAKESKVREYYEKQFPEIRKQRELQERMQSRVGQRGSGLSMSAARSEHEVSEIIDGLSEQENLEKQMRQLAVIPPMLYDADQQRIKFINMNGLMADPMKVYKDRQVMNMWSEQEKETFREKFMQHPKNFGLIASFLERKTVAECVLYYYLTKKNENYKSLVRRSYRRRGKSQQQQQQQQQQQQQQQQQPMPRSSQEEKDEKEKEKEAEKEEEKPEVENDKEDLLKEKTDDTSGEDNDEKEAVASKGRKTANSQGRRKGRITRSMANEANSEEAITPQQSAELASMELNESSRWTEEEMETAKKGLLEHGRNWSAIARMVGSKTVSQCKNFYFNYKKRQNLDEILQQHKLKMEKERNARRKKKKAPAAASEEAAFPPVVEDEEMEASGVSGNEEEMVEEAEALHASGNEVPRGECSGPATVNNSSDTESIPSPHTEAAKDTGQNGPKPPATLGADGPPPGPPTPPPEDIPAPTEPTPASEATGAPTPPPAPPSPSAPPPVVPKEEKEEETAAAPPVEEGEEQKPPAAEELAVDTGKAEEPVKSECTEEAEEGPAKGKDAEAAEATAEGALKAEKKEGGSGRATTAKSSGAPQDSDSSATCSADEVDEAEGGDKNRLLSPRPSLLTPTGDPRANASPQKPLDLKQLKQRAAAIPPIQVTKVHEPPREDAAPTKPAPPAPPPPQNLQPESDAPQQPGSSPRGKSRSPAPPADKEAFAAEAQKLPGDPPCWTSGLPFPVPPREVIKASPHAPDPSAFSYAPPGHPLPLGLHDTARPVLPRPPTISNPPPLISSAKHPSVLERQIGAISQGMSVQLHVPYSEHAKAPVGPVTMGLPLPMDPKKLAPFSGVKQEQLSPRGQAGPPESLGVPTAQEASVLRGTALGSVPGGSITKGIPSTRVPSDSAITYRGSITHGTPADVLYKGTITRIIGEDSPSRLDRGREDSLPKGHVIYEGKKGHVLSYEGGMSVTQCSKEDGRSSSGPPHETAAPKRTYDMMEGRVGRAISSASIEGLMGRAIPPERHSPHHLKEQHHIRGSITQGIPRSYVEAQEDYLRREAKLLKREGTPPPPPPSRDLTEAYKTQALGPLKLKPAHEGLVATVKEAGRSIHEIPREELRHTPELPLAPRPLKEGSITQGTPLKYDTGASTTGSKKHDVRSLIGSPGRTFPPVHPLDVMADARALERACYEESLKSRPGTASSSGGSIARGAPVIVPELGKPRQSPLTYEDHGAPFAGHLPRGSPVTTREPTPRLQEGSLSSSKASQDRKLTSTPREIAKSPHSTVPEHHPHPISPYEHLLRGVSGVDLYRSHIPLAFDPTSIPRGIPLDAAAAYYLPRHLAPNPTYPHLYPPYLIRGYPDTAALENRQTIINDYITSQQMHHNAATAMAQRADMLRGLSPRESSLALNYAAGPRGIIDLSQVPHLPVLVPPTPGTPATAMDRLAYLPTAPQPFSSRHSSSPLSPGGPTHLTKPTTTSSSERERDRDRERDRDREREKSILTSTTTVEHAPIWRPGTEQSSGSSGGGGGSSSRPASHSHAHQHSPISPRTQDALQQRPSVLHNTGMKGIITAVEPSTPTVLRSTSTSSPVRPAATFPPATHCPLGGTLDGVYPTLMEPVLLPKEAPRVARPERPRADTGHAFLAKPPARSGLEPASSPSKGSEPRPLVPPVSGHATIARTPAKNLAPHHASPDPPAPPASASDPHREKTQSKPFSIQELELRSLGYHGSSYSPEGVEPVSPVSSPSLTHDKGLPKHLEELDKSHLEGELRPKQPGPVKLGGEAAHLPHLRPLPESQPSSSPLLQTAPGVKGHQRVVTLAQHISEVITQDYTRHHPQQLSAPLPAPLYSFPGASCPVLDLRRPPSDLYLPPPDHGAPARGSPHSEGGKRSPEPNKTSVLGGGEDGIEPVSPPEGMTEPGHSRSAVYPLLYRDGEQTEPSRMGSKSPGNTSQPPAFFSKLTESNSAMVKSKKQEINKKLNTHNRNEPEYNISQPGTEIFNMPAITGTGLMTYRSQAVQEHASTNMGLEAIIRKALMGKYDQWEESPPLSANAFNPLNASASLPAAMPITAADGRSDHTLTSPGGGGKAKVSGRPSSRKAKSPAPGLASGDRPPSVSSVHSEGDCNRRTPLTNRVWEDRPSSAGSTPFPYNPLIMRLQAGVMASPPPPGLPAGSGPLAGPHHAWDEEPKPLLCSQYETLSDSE
# UniProt Q8TD19: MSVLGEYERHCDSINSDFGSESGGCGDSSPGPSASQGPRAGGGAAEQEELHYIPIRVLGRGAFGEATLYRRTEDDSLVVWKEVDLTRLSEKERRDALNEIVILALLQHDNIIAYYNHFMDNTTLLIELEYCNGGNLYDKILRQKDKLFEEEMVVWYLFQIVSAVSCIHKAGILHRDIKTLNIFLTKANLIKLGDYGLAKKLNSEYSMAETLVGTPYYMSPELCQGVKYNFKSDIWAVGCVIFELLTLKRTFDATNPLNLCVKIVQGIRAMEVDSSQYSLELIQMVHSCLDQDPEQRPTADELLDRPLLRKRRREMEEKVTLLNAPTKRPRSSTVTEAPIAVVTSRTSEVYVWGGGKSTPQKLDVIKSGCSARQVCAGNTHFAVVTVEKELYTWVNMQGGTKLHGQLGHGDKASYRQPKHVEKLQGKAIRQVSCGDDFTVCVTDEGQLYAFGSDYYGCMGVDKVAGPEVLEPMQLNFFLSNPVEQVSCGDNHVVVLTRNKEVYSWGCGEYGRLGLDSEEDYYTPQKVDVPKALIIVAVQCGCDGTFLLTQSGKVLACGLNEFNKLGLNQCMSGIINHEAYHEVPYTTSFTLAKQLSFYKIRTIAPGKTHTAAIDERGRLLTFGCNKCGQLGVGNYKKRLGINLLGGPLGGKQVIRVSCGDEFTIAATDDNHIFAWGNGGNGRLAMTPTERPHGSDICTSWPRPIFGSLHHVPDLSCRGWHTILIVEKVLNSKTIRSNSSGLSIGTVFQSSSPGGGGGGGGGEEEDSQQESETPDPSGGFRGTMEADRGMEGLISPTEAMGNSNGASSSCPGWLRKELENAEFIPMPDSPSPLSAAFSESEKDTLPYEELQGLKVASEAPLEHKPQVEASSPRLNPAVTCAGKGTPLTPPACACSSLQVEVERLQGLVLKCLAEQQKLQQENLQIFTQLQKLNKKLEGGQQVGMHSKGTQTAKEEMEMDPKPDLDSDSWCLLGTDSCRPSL
# UniProt O43678, whole entry, looked up: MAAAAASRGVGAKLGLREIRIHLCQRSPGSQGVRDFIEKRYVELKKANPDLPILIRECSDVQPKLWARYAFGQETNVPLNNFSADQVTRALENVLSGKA
# UniProt P14543: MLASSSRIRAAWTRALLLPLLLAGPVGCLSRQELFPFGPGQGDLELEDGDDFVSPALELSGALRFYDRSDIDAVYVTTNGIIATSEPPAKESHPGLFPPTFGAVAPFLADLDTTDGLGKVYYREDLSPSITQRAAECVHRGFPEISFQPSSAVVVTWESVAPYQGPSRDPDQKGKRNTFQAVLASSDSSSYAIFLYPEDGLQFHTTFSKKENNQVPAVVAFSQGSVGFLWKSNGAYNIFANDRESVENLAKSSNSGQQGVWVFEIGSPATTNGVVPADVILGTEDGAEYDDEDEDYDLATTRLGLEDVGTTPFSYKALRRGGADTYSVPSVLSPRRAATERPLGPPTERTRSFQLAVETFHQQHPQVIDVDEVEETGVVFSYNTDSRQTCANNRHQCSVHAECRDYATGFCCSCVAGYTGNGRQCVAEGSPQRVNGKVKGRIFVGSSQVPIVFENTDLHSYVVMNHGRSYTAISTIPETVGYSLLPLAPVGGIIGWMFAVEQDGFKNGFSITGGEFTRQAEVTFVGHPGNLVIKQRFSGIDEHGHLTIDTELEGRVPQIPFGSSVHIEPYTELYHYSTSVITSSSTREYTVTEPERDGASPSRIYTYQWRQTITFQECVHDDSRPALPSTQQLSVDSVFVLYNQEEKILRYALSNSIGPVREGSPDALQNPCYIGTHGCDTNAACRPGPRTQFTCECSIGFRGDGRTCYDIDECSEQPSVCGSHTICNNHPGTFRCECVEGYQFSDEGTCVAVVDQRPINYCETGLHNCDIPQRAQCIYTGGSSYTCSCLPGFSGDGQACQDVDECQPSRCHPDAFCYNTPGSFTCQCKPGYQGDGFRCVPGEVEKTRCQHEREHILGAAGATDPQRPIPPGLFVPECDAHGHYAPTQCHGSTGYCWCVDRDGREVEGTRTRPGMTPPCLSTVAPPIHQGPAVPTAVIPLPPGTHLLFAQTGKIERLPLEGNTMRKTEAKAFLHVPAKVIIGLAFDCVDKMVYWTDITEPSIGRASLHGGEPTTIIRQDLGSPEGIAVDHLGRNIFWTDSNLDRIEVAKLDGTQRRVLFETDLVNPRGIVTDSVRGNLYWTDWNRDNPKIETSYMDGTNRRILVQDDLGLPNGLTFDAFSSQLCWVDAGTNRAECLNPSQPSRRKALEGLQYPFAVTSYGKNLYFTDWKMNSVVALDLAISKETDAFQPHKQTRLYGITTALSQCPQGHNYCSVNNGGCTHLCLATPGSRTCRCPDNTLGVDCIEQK
# UniProt P51970, whole entry, looked up: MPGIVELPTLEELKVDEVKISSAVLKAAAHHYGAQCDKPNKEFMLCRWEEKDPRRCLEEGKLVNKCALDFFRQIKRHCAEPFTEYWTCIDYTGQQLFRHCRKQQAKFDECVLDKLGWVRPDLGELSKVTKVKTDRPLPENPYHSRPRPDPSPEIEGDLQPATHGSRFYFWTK
# UniProt Q86X76: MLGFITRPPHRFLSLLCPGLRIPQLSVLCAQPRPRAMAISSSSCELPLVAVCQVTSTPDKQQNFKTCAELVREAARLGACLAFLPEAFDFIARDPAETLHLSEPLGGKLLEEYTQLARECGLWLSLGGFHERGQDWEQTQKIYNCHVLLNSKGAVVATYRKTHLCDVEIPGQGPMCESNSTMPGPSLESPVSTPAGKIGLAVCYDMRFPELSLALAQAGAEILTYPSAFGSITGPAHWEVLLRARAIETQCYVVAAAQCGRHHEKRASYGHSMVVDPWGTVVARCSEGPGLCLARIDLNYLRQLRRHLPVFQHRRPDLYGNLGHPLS
# UniProt Q9HCD5: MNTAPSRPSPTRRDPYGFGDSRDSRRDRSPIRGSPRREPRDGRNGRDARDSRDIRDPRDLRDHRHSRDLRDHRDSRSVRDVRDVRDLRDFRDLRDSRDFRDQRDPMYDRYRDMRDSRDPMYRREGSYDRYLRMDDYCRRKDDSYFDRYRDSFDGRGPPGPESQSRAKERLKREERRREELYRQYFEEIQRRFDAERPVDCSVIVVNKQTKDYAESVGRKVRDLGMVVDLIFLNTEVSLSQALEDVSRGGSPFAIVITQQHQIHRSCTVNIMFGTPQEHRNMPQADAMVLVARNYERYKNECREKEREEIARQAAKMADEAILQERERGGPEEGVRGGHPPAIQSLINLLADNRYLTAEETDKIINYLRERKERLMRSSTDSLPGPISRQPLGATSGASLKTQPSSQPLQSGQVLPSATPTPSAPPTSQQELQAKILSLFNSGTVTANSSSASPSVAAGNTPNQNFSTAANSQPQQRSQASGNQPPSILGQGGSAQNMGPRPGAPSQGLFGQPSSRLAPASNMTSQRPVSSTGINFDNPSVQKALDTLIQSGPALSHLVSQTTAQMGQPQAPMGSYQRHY
# Compound: Cc1cc(ccc1-c1ccccc1)C(=O)N1CCCN(CC1)C(=O)CCl [compound 10]
# Assay: probe-labelled cysteine peptide fold change vs DMSO (competition) (log2 fold change); higher = less target engagement (more negative = stronger competition)
# Conditions: 50 µM; THP-1; incubation time: 4 h
# 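Further: competitive profiling in live THP-1 cells: cysteine peptides tagged with an iodoacetamide desthiobiotin (IA-DTB) probe, intensity after compound treatment relative to DMSO-treated cells.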
row,Target,probe-labelled cysteine peptide fold change
1,NIPBL_Q6KC79_573_QCNDAPVSVLQEDIVGSLK (UniProt Q6KC79),-0.224
2,NIFK_Q9BYG3_237_TVDSQGPTPVCTPTFLER (UniProt Q9BYG3),-0.0996
3,NGLY1_Q96IV0_283_EVEDHYCDACQFSNRFPR (UniProt Q96IV0),0.228
4,NIN_Q8N4C6_1502_AMMHDLQITCSEMQQK (UniProt Q8N4C6),0.0291
5,NDRG3_Q9UGV2_359_SVTSNQSDGTQESCESPDVLDR (UniProt Q9UGV2),-0.0875
6,NCOR2_Q9Y618_466_TVAECVLYYYLTK (UniProt Q9Y618),0.294
7,NDUFS1_P28331_75_LSVAGNCR (UniProt P28331),-0.243
8,NEK9_Q8TD19_657_VSCGDEFTIAATDDNHIFAWGNGGNGR (UniProt Q8TD19),-0.113
9,NEMF_O60524_201_VLNPLLPYGPALIEHCLLENGFSGNVK (UniProt O60524),-0.0864
10,NIPBL_Q6KC79_2151_SLFTVGALCR (UniProt Q6KC79),-0.074
11,NDUFA2_O43678_58_ECSDVQPK (UniProt O43678),-0.259
12,NID1_P14543_679_EGSPDALQNPCYIGTHGCDTNAACRPGPR (UniProt P14543),0.00488
13,NIN_Q8N4C6_1261_LLYEDVSRENDCLQEELR (UniProt Q8N4C6),-0.0558
14,NDUFA8_P51970_66_CALDFFR (UniProt P51970),0.0473
15,NIT1_Q86X76_145_IYNCHVLLNSK (UniProt Q86X76),0.0697
16,NEK4_P51957-2_463_DQDQVAGECIIEK (UniProt P51957),-0.573
17,NCOA5_Q9HCD5_301_YKNECR (UniProt Q9HCD5),-0.252
18,NCOR2_Q9Y618_866_SECTEEAEEGPAK (UniProt Q9Y618),-0.0701
19,NCOA5_Q9HCD5_266_SCTVNIMFGTPQEHR (UniProt Q9HCD5),0.209

row,Target,probe-labelled cysteine peptide fold change
1,NDC80_O14777_100_QLCEFLTENGYAHNVSMK (UniProt O14777),-0.136
2,NIPBL_Q6KC79_52_IAEEVNCLLACRDDNLVSQLVHSLNQVSTDHIELK (UniProt Q6KC79),-0.915
3,NDRG1_Q92597_394_SMEVSC (UniProt Q92597),-0.206
4,NEK1_Q96PY6_276_FLSPQLIAEEFCLK (UniProt Q96PY6),-0.246
5,NCKIPSD_Q9NZQ3_376_DLSMALPSGQVCHDQQR (UniProt Q9NZQ3),-0.0364
6,NF2_P35240_133_IYCPPEASVLLASYAVQAK (UniProt P35240),0.232
7,NID1_P14543_685_EGSPDALQNPCYIGTHGCDTNAACRPGPR (UniProt P14543),0.166
8,NEK9_Q8TD19_569_LGLNQCMSGIINHEAYHEVPYTTSFTLAK (UniProt Q8TD19),-0.126
9,NCLN_Q969V3_84_RCVLMR (UniProt Q969V3),0.108
10,NIN_Q8N4C6_695_EAHHEATCR (UniProt Q8N4C6),0.089
11,NFKBIE_O00221_457_GLMGISSTLCK (UniProt O00221),-0.56
12,NF1_P21359_509_LLLCNPR (UniProt P21359),-0.0523
13,NCOR2_Q9Y618_1503_ACYEESLK (UniProt Q9Y618),-0.21
14,NGLY1_Q96IV0_283+286_EVEDHYCDACQFSNRFPR (UniProt Q96IV0),-0.659
15,NIPSNAP3A_Q9UFN0_135_QESEITYLVPWCK (UniProt Q9UFN0),0.389
16,NET1_Q7Z628_267_GYCSNQLAAK (UniProt Q7Z628),-0.253
17,NDUFV2_P19404_135+140_YHIQVCTTTPCMLR (UniProt P19404),-0.157
18,NELFCD_Q8IXH7_417_GASELVAELSTLYQCIR (UniProt Q8IXH7),0.297
19,NIT2_Q9NQR4_170_GCQLLVYPGAFNLTTGPAHWELLQR (UniProt Q9NQR4),-0.0627

# Two entries picked at random from those above, as already listed:
row,Target,probe-labelled cysteine peptide fold change
7,NID1_P14543_685_EGSPDALQNPCYIGTHGCDTNAACRPGPR (UniProt P14543),0.166
15,NIT1_Q86X76_145_IYNCHVLLNSK (UniProt Q86X76),0.0697

# — the supplement of paper PMC12067093, “Discovery and optimisation of a covalent ligand for TRIM25 and its application to targeted protein ubiquitination” (Chemical Science, 2025)
